Measurements reported in PubChem BioAssay AID1487 (National Center for Advancing Translational Sciences (NCATS), 2009).
The list shows a part of the results. The main result of the screen is listed elsewhere. These columns were measured beside it and carry no call. The list favours compounds with an active or inconclusive main result. Words in brackets tell the shape of the fitted curve; partial curves, single points and poor fits give uncertain potencies.

Assay: qHTS Assay for Modulators of Lamin A Splicing
Conditions: HeLa LMNA splicing GFP/RFP minigene ratio, 48 h
Procedure, shortened: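 S3 HeLa stable clones carrying a lamin A-EGFP splicing minigene plus DsRed2 were seeded at 600 cells/well in Opti-MEM with 2% FBS, pin-dosed and incubated 48 h at 37°C. Acumen cytometry (488 nm) gave the GFP/RFP total-intensity ratio.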

[1] = measured here: GFP splicing reporter channel
[2] = measured here: RFP viability control channel

Structure (SMILES)	AC50 [1]	AC50 [2]
Cc1ccc(S(=O)(=O)Nc2ccccc2-c2ccccc2)cc1	3.98 µM [falling, full curve]	4.47 µM [falling, full curve]
CCSc1nnc(NC(=O)CSc2nnc(CNC(=O)c3ccccc3F)o2)s1	14.1 µM [rising, single point]	
COc1ccc(CN(C2CCCC2)S(=O)(=O)c2ccc(-n3cnnn3)cc2)cc1		31.6 µM [rising, single point]
CC(=O)Nc1cccc(C(=O)/C=C/c2ccc(N(C)C)cc2)c1	10 µM [rising, partial curve]	25.1 µM [rising, partial curve]
O=C(COC(=O)c1ccc2[nH]c3c(c2c1)CCCC3)Nc1ccccc1	22.4 µM [rising, single point]	22.4 µM [rising, single point]
N#C/C(=N\Nc1ccc(S(=O)(=O)N2CCc3ccccc32)cc1)C(N)=S	25.1 µM [rising, single point]	14.1 µM [rising, partial curve]
Cc1c(Cl)cccc1N=Cc1ccc([N+](=O)[O-])s1	25.1 µM [falling, single point]	35.5 µM [falling, single point]
CCn1c(SCC(=O)Nc2nc(-c3ccccc3)cs2)nnc1-c1ccccc1	12.6 µM [rising, single point]	17.8 µM [rising, single point]
CC(=O)c1ccc(NC(=O)c2nn(C)c3c2CS(=O)(=O)c2ccccc2-3)cc1	3.16 µM [rising, partial curve, poor fit]	15.8 µM [rising, single point]
O=C(CCBr)N1CCN(C(=O)CCBr)CC1	12.6 µM [falling, partial curve, poor fit]	0.501 µM [falling, single point]
COCC(C)n1c(=O)sc2ccccc2c1=O (stereo not given)	3.55 µM [rising, partial curve]	
O=C(Nc1ccc(Cl)cc1)c1cnc(-c2ccccc2)nc1-c1ccccc1	35.5 µM [falling, single point]	25.1 µM [falling, partial curve]
CN(C)S(=O)(=O)c1ccc(Cl)c(NC(=O)CSc2nc3c(cc2C#N)C(=O)CC(C)(C)C3)c1	22.4 µM [rising, single point]	25.1 µM [rising, partial curve]
Cc1cc(C)c(C)c(S(=O)(=O)N2CCN(c3ccc(O)cc3)CC2)c1C		22.4 µM [rising, single point]
COc1ccc(Nc2nc(NC(C)(C)C)nc(N3CCCC3)n2)c(OC)c1	22.4 µM [rising, partial curve, poor fit]	15.8 µM [rising, single point]
COc1ccc(N(C(=O)c2cccnc2)S(=O)(=O)c2cccc([N+](=O)[O-])c2)cc1		2.82 µM [rising, partial curve]
COc1cc(/C=C2\SC(N)=NC2=O)ccc1OCC(=O)Nc1ccc(C)cc1		14.1 µM [falling, partial curve, poor fit]

2 records picked at random from the list so far:
Structure (SMILES)	AC50 [1]	AC50 [2]
COCC(C)n1c(=O)sc2ccccc2c1=O (stereo not given)	3.55 µM [rising, partial curve]	
COc1cc(/C=C2\SC(N)=NC2=O)ccc1OCC(=O)Nc1ccc(C)cc1		14.1 µM [falling, partial curve, poor fit]

(continued)

Structure (SMILES)	AC50 [1]	AC50 [2]
CCOc1ccc(NC(=O)C[n+]2ccc(N(C)C)cc2)cc1		35.5 µM [rising, single point]
Cn1c(Cn2c(=O)sc3ccccc32)nnc1SCc1ccc(F)cc1		22.4 µM [rising, partial curve]
COc1ccc(OC)c(NC(=O)C2CCN(Cc3cnn(-c4ccccc4)c3-n3cccc3)CC2)c1		11.2 µM [rising, single point]
Cc1cccc(NC(c2nnc(-c3ccccc3)o2)c2ccc(F)cc2Cl)c1C (stereo not given)	7.08 µM [rising, partial curve, poor fit]	
Cc1ccc(-c2cn3c(n2)sc2cc(C(=O)NC4CCCCCC4)ccc23)c(C)c1		15.8 µM [rising, partial curve]
O=C(NCc1ccccc1)c1ccc2c(c1)sc1nc(-c3ccc(F)cc3)cn12	0.0178 µM [falling, full curve, poor fit]	
COC(=O)/C=C1\N/C(=N\c2nc(C)cc(C)n2)N(c2ccc(C)c(C)c2)C1=O		31.6 µM [rising, single point]
CCc1ccccc1NC(=O)CSc1nc2ccccc2nc1Cc1cccc(OC)c1	0.355 µM [rising, full curve]	3.98 µM [rising, partial curve]
CC1(C)Cc2c(sc3nnn(CC(=O)Nc4ccccc4)c(=O)c23)CO1	1.58 µM [rising, partial curve]	
O=C(NCc1ccc2c(c1)OCO2)c1ccc(-c2ccc(Cl)cc2)o1	12.6 µM [rising, single point]	17.8 µM [rising, single point]
Cc1nc2c(ccc3nc(NC(=O)c4ccc5c(c4)OCCO5)sc32)s1	2.82 µM [rising, partial curve]	35.5 µM [falling, single point]
Cc1cc(/C=N/NC(=O)C(=O)N2CCCC2)c(C)n1-c1cccc(Br)c1		11.2 µM [rising, single point]
COc1cc(NC(=O)C2CC(c3cccc(OC)c3OC)=NO2)cc(OC)c1OC (stereo not given)		8.91 µM [rising, partial curve]
Cc1ccc(C)c(NC(=S)N(CCN(C)C)C(C)c2ccccn2)c1 (stereo not given)	1.26 µM [rising, full curve]	0.562 µM [rising, single point]
CCc1cc[n+](C2=C([O-])c3ccccc3C(=O)/C2=N\S(=O)(=O)c2cccs2)cc1	3.55 µM [rising, single point]	20 µM [falling, single point]
Cc1cc(-c2nnc(SCc3ccccn3)o2)no1	7.94 µM [rising, partial curve]	0.631 µM [rising, full curve, poor fit]
